Measurements as given in PubChem BioAssay AID540276 (National Center for Advancing Translational Sciences (NCATS), 2011).
About 5,400 (1.8%) of roughly 300,000 compounds were called active. Inconclusive results, whose numbers are uncertain, are shown with a selection of clear calls. The call rests on the fitted dose curve; tested in HEK293 cells. Potencies beside an inconclusive call are fits to weak or partial responses and may not hold up.

Experiment: qHTS for inhibitors of binding or entry into cells for Marburg Virus
Settings: Marburg virus pseudotyped entry inhibition, cell reporter; series mostly up to 37.8 µM
Potency means the concentration at half of the fitted maximal effect.

Structure (SMILES)	Potency
COc1ccc(O[C@H]2C=C[C@@H](c3ccccc3)O[C@H]2CON=C2c3cc(OC)ccc3O[C@H](c3cccc(OC)c3)[C@H]2O)cc1	inconclusive: 0.0133 µM [inhibitor, full curve, poor fit]
COc1ccc(CCNC(=O)c2ccccc2-c2ccccc2C(=O)O)cc1OC	inconclusive: 1.26 µM [inhibitor, single point]
CCOc1ccc2oc(=O)cc(CN3CCN(Cc4ccc(F)cc4)CC3)c2c1	inconclusive: 5.62 µM [inhibitor, single point]
CCC(=O)c1c[nH]c(C(=O)NCc2ccco2)c1	inactive
CC(C)(C)n1ncc(Oc2ccccc2[N+](=O)[O-])c(Cl)c1=O	inactive
O=C(c1cccs1)N1CCN(C(=O)c2cccs2)C1=S	inconclusive: 35.5 µM [inhibitor, single point]
Cn1cccc1C(=O)OCc1cc(Cl)cc2c1OCOC2	inconclusive: 3.26 µM [inhibitor, partial curve, poor fit]
Cc1nn(-c2ccccc2)c(N)c1Sc1ccccc1[N+](=O)[O-]	inconclusive: 22.4 µM [inhibitor, single point]
COc1ccc(Cl)cc1N1C(=O)/C(=C/c2sccc2C)N=C1SCC(=O)NC1CC1	active: 10 µM
Cc1cc(NC(=O)c2ccc(-c3ccccc3F)o2)no1	inconclusive: 6.31 µM [activator, single point]
COc1ccc(-c2cc(C(=O)NCc3ccc(F)cc3)no2)cc1	inactive
N#Cc1nc(-c2cccc(Cl)c2)oc1N1CCC(C(N)=O)CC1	inconclusive: 1.26 µM [inhibitor, single point]
Cc1ccc(C(=O)CSc2n[nH]c(C)n2)cc1	inactive
CCCN1CCc2cccc3c2C1Cc1ccc(O)c(O)c1-3 (stereo unspecified)	inconclusive: 35.5 µM [inhibitor, partial curve, poor fit]
COc1ccc(Cl)cc1N(CC(=O)N1CCCC1)S(C)(=O)=O	inconclusive: 0.316 µM [activator, full curve, poor fit]
Cc1cc(C)cc(Nc2nc3ccccc3n3cnnc23)c1	inactive
S=c1nc(Cc2ccc(Cl)cc2)[nH]c2ccccc12	inconclusive: 3.16 µM [inhibitor, partial curve]
O=C(CSc1ccc2nnc(CCNC(=O)c3ccccc3)n2n1)NCc1ccco1	inactive
CC1CCCCC1NC(=O)c1cccc(N2C(=O)C3C4C=CC(C4)C3C2=O)c1 (stereo unspecified)	inconclusive: 0.631 µM [inhibitor, partial curve, poor fit]
CCn1c(=O)cc(SCC(=O)NCCc2cccc(C)c2)c2ccccc21	inactive
O=C(Nc1ccc2c(c1)CCC2)c1cccc(F)c1	inconclusive: 0.0517 µM [activator, full curve, poor fit]
COC(=O)c1ccccc1NC(=O)NCc1ccc2c(c1)OCO2	inconclusive: 18.3 µM [inhibitor, partial curve, poor fit]
Cc1cc(-c2ccc(C)c(S(=O)(=O)NCCCN3CCCCCC3)c2)on1	inconclusive: 0.562 µM [activator, full curve, poor fit]
CCn1nc(-c2cccs2)nc2c(=O)n(C)c(=O)nc1-2	active: 0.891 µM

Twelve entries from above, with bars between the fields.
Structure (SMILES) | Potency
COc1ccc(O[C@H]2C=C[C@@H](c3ccccc3)O[C@H]2CON=C2c3cc(OC)ccc3O[C@H](c3cccc(OC)c3)[C@H]2O)cc1 | inconclusive: 0.0133 µM [inhibitor, full curve, poor fit]
CCOc1ccc2oc(=O)cc(CN3CCN(Cc4ccc(F)cc4)CC3)c2c1 | inconclusive: 5.62 µM [inhibitor, single point]
CCC(=O)c1c[nH]c(C(=O)NCc2ccco2)c1 | inactive
CC(C)(C)n1ncc(Oc2ccccc2[N+](=O)[O-])c(Cl)c1=O | inactive
Cc1nn(-c2ccccc2)c(N)c1Sc1ccccc1[N+](=O)[O-] | inconclusive: 22.4 µM [inhibitor, single point]
COc1ccc(Cl)cc1N1C(=O)/C(=C/c2sccc2C)N=C1SCC(=O)NC1CC1 | active: 10 µM
COc1ccc(-c2cc(C(=O)NCc3ccc(F)cc3)no2)cc1 | inactive
N#Cc1nc(-c2cccc(Cl)c2)oc1N1CCC(C(N)=O)CC1 | inconclusive: 1.26 µM [inhibitor, single point]
CCCN1CCc2cccc3c2C1Cc1ccc(O)c(O)c1-3 (stereo unspecified) | inconclusive: 35.5 µM [inhibitor, partial curve, poor fit]
Cc1cc(C)cc(Nc2nc3ccccc3n3cnnc23)c1 | inactive
Cc1cc(-c2ccc(C)c(S(=O)(=O)NCCCN3CCCCCC3)c2)on1 | inconclusive: 0.562 µM [activator, full curve, poor fit]
CCn1nc(-c2cccs2)nc2c(=O)n(C)c(=O)nc1-2 | active: 0.891 µM

(cont.)

Structure (SMILES)	Potency
CCN(CC(=O)Nc1cccc(OC)c1)CC(=O)Nc1ccccc1C	inconclusive: 10 µM [inhibitor, single point]
Cc1nc2ccc(S(=O)(=O)NC(C(=O)N3CCN(c4ccc(Cl)cc4)CC3)C(C)C)cc2s1 (stereo unspecified)	inconclusive: 7.08 µM [inhibitor, partial curve, poor fit]
C=CCC1(CC=C)CCCN1Cc1nc(COc2ccccc2)no1	inactive
CC(NC(=O)C(C)(C)C)c1nc2ccccc2n1C (stereo unspecified)	inconclusive: 7.3 µM [activator, partial curve, poor fit]
c1ccc2c(CNC3CCCCC3)c[nH]c2c1	inconclusive: 32.6 µM [inhibitor, single point]
CCCCCSc1nnc2c(n1)OC(CC)Nc1ccc(Br)cc1-2 (stereo unspecified)	inactive
Cc1c(Cl)c(C(=O)NNC(=S)Nc2ccc(F)cc2)nn1C	inconclusive: 35.5 µM [activator, partial curve, poor fit]
Cc1cc(C)cc(NC(=S)N2CCN(S(C)(=O)=O)CC2)c1	inactive
COc1ccc(/C=N/Nc2ccc(C(F)(F)F)cc2[N+](=O)[O-])cc1	inconclusive: 4.47 µM [activator, full curve, poor fit]
Cc1occc1-c1nc(-c2ccncc2)no1	inactive
O=C(NN=Cc1ccc([N+](=O)[O-])cc1)c1ccncc1	inactive
CC(=O)OC1CC(C)(C)N(OC(=O)c2ccccc2)C(C)(C)C1	inconclusive: 35.5 µM [inhibitor, single point]
COc1ccccc1OCCCCN1CCC(C)CC1	inconclusive: 1.26 µM [activator, single point]
COC(=O)c1cccc(N(C(=O)c2cnccn2)C(C(=O)NC2CCCCC2)c2cn(C)nc2C)c1 (stereo unspecified)	inconclusive: 1.16 µM [activator, full curve, poor fit]
NC(=O)COC(=O)c1cccc2c1-c1ccccc1C2=O	inconclusive: 5.62 µM [inhibitor, partial curve, poor fit]
CC(C)CNS(=O)(=O)c1ccc(CCC(=O)N2CCN(c3ccccc3)CC2)cc1	inconclusive: 1.12 µM [inhibitor, full curve, poor fit]
CCc1nn(CCCC(=O)N(C)Cc2ccccc2)c(=O)c2cc3occc3n12	inactive
NCC[C@H]1CCC[C@H](CCN)N1	inactive
CCS(=O)(=O)N1CCC(C(=O)NCCN2CCOCC2)CC1	inconclusive: 6.31 µM [activator, single point]
COc1ccc(OC)c(-n2nnnc2SCC(=O)Nc2ccc(C(=O)N3CCCCC3)cc2)c1	inactive
CCOc1ccc(/C(CCC(=O)O)=N/NC(=S)NCCc2ccccc2)cc1	inconclusive: 22.4 µM [activator, single point]
Cc1cc(/C=N/Nc2nc(N3CCOCC3)nc(N3CCOCC3)n2)c(C)n1-c1ccccc1	inconclusive: 35.5 µM [inhibitor, single point]
O=C(NC(=S)NCC1CCCO1)c1ccc(Cl)cc1Cl (stereo unspecified)	inconclusive: 35.5 µM [activator, partial curve, poor fit]
COCc1cc(C)nc2sc(C(=O)Nc3ccc(OC(F)(F)F)cc3)c(N)c12	inconclusive: 7.08 µM [activator, single point]

Structure (SMILES)	Potency
C=CCN(CC=C)Cc1ccc(C(=O)OC)o1	inconclusive: 0.112 µM [inhibitor, full curve, poor fit]
O=C(NCc1ccco1)C(=O)NCC1OCCN1C(=O)c1ccc(Cl)cc1 (stereo unspecified)	inconclusive: 2.82 µM [activator, single point]
CCOC(=O)c1c(C)nc(-c2ccccc2)nc1N	inconclusive: 1.83 µM [activator, partial curve, poor fit]
COc1cccc(C(=O)Nc2ccc(NC(=O)c3ccco3)cn2)c1	inconclusive: 35.5 µM [activator, single point]
Cc1ccc(CNC(=O)COC(=O)CSc2cc(C)c(Br)cc2C)cc1	inconclusive: 0.631 µM [activator, single point]
COc1cccc(C(=O)NCCC2=CCCCC2)c1OC	inconclusive: 2.82 µM [activator, single point]
COc1cc(C#N)c(N=C(SCC#N)N2CCOCC2)cc1OC	inactive
Cc1cc(-n2nc(C)cc2C)n2ncc(-c3ccccc3)c2n1	inconclusive: 14.1 µM [activator, single point]
COc1cccc(C(c2nnnn2Cc2ccccc2)N2CCN(C(=O)c3ccco3)CC2)c1OC (stereo unspecified)	inactive
COc1cc2c(cc1NC(=S)Nc1cccc(C(F)(F)F)c1)oc1ccccc12	inactive
CC(C)NC(=O)c1ccc(C(C)C)cc1	inconclusive: 10 µM [activator, partial curve, poor fit]
CCOC(=O)C1CCN(c2c(Nc3cc(C)cc(C)c3)c(=O)c2=O)CC1	inconclusive: 3.98 µM [inhibitor, full curve]
O=C(Nc1cccc(F)c1)c1ccc(S(=O)(=O)NCC2CCCO2)cc1 (stereo unspecified)	inactive
Cc1cc(C(=O)NNC(=S)Nc2cccc(C(F)(F)F)c2)nn1C	inactive
Cc1nn(-c2ccccc2)c2nc(N)c(C(N)=O)cc12	inconclusive: 0.1 µM [inhibitor, full curve, poor fit]
COc1cc2c(cc1OC)C(c1ccccc1C(F)(F)F)CC(=O)N2 (stereo unspecified)	inconclusive: 35.5 µM [inhibitor, single point]
CCOc1cc(N2CCOCC2)c(OCC)cc1NC(=O)COC(=O)c1ccc([N+](=O)[O-])o1	inconclusive: 35.5 µM [inhibitor, single point]
CCC(CC)C(=O)Nc1cccc(C(=O)Nc2ccc(S(=O)(=O)Nc3ccc(C)cc3)cc2)c1	inconclusive: 29.1 µM [inhibitor, single point]
O=C(O)c1cc([N+](=O)[O-])ccc1N1CCCCC1	inactive
CCSc1nc2ccc(C)cc2cc1C#N	inconclusive: 11.2 µM [inhibitor, single point]
CCOc1ccccc1CNC(=O)C(C)n1nc(C)c2c(C)n(-c3ccccc3)nc2c1=O (stereo unspecified)	inconclusive: 10 µM [inhibitor, partial curve, poor fit]
O=C(Oc1ccc2ccccc2c1)c1ccco1	inactive
CCN1C(=O)c2cccc3c(NC(=O)c4ccc5c(c4)OCCO5)ccc1c23	inactive
